The list shows a part of the results.

By UniProt entry, the sequences of proteins in these tests, tags left out. Where a name states a change or a piece, a line headed by the entry shows the natural chain unless it says otherwise.
UniProt Q9C0C7: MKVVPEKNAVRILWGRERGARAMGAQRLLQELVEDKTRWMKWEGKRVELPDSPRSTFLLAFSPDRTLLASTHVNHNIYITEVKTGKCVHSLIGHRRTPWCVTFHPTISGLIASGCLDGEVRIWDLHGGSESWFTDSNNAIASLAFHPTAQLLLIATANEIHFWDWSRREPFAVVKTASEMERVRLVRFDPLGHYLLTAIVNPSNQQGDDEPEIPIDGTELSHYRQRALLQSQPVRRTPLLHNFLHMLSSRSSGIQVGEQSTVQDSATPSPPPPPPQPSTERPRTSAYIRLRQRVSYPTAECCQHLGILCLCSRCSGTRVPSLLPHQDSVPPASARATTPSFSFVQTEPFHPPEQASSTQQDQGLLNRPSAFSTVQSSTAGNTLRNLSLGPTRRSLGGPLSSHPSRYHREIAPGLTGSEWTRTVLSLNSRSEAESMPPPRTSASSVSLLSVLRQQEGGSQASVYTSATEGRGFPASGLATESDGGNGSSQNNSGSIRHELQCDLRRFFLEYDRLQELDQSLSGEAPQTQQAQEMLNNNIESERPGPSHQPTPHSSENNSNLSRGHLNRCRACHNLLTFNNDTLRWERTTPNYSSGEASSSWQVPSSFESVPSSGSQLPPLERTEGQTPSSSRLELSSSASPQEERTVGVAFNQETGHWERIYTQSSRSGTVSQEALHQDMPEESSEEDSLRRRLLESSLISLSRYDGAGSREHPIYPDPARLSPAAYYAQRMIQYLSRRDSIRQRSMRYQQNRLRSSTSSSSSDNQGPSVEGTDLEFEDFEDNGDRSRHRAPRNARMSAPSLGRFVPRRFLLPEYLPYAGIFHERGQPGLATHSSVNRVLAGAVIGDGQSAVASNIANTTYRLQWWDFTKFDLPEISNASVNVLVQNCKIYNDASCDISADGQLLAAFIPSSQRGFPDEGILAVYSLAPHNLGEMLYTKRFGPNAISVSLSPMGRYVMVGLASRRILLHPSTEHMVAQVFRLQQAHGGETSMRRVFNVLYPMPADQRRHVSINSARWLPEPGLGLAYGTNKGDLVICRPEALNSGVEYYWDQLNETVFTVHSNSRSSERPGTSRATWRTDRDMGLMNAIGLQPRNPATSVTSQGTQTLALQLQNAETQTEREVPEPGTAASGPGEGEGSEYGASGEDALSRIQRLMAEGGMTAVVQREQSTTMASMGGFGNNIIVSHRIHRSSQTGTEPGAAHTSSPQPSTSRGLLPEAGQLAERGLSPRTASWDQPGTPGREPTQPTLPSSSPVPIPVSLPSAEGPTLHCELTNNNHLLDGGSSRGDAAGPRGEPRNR
UniProt Q2TAA5: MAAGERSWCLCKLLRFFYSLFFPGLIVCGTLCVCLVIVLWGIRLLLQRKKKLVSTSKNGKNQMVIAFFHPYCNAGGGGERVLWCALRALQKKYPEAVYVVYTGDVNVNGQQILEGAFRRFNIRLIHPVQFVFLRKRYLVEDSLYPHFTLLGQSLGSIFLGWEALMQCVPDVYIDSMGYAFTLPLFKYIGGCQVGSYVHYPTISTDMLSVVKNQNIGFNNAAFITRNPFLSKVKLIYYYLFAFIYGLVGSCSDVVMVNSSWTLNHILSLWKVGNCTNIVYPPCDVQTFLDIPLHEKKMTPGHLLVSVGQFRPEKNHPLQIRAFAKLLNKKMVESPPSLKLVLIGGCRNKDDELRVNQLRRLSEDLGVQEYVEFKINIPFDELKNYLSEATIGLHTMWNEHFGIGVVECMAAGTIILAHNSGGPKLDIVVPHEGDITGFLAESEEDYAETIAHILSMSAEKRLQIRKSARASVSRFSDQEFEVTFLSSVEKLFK
UniProt Q6AI12: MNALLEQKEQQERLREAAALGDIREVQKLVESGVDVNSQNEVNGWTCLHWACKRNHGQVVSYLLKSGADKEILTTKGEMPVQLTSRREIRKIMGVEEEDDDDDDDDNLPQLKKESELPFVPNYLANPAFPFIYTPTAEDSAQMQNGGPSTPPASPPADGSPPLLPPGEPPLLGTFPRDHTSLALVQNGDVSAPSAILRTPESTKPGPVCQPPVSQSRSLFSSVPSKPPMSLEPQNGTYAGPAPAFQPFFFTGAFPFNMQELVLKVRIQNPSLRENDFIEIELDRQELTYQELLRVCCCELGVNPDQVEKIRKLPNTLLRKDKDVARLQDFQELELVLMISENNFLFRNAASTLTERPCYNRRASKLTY
UniProt Q9ULJ7: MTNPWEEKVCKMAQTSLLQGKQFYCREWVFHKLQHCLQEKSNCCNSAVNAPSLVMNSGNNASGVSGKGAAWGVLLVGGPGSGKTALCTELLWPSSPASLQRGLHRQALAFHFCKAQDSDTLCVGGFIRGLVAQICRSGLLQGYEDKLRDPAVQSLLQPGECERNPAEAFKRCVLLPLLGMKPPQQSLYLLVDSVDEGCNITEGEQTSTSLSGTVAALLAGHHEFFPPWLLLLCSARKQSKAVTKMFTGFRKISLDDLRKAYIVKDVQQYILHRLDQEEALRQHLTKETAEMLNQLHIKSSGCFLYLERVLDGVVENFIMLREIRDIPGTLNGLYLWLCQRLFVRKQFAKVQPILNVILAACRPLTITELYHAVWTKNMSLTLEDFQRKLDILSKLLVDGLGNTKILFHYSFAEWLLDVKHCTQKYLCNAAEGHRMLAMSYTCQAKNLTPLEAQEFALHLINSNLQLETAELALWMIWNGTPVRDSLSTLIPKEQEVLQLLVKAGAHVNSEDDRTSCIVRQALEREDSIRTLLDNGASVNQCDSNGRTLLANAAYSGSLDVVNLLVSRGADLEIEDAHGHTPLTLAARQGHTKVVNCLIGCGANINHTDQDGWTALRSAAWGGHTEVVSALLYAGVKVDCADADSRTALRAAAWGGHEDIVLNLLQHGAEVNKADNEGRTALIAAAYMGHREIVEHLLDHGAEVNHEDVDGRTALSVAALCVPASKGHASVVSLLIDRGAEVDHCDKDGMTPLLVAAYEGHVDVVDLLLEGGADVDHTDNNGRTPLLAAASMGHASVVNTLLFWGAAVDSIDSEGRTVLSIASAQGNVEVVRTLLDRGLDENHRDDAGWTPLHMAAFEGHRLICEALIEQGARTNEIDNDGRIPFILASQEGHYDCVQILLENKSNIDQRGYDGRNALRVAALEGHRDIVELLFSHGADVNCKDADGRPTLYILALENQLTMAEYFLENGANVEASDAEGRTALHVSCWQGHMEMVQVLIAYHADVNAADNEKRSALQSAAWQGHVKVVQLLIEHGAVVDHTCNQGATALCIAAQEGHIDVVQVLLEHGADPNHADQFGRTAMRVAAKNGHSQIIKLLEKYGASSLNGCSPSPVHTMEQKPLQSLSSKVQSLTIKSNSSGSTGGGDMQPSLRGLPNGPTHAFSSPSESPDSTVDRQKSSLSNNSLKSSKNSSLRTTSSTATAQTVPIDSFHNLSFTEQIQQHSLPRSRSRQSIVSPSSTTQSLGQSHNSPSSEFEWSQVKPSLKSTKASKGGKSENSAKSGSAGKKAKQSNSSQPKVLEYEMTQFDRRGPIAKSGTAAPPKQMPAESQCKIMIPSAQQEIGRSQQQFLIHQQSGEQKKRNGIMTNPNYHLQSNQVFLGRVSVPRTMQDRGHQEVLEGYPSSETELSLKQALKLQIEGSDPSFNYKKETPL
UniProt O00189: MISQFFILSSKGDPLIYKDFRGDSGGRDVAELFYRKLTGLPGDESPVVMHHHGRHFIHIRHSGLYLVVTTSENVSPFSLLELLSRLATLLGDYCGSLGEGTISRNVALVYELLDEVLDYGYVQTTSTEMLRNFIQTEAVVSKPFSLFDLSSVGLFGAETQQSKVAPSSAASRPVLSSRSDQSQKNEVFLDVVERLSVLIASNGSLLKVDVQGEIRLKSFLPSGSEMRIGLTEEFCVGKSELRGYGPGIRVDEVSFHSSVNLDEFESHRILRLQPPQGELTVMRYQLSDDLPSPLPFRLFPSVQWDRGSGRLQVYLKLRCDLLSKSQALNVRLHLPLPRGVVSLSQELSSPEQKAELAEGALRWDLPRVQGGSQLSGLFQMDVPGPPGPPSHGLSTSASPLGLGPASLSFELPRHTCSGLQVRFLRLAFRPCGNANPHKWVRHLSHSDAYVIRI
UniProt Q8IY63: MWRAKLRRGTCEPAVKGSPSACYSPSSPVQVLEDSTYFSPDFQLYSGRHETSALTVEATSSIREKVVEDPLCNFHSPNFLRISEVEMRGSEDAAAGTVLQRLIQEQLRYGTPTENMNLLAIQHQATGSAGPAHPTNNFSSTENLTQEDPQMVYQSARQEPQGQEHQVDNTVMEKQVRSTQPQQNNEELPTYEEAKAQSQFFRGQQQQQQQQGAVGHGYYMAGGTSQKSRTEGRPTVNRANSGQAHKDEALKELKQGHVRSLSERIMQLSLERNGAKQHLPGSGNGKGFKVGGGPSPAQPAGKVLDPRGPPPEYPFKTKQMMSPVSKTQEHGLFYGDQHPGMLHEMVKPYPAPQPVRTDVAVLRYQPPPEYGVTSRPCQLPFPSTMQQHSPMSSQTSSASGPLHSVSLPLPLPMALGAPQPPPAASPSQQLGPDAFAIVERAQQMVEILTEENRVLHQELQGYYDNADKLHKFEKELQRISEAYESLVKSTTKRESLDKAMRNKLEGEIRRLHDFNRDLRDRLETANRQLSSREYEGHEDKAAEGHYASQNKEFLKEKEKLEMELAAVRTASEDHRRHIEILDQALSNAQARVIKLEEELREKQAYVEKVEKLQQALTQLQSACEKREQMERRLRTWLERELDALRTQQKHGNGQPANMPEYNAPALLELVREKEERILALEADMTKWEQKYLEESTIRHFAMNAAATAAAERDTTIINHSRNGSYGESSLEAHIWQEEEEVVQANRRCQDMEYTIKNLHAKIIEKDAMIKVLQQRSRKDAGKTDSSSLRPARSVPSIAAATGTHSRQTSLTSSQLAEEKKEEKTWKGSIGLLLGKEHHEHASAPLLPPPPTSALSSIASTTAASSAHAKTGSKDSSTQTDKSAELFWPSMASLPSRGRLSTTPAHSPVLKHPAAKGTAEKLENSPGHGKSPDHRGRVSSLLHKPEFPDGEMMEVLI
UniProt Q9NYG5, whole entry, looked up: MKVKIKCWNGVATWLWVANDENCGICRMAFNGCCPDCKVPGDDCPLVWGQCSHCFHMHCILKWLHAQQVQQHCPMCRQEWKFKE
UniProt Q86XL3: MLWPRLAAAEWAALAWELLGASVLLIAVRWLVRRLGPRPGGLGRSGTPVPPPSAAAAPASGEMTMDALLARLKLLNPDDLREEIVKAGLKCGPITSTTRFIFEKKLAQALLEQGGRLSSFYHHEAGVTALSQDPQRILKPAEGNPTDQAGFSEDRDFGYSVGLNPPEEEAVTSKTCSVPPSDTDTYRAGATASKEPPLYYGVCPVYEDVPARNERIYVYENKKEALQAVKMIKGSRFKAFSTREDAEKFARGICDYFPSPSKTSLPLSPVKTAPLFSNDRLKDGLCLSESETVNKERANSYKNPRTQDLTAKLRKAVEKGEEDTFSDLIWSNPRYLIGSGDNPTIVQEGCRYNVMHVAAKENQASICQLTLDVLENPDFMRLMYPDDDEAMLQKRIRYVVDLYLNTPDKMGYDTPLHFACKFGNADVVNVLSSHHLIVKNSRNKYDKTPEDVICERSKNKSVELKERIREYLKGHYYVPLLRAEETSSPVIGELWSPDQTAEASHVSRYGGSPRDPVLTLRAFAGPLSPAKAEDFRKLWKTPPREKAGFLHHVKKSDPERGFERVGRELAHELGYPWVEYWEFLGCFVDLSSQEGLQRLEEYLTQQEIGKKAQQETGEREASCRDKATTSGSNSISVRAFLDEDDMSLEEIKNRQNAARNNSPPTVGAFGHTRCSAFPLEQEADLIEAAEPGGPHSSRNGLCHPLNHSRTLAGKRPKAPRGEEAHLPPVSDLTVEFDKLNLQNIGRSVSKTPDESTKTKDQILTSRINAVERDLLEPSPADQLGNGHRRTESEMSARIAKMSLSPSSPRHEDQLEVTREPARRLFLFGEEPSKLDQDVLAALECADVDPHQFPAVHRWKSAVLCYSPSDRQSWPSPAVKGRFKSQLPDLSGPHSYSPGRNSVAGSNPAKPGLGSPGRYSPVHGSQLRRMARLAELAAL
UniProt P53677: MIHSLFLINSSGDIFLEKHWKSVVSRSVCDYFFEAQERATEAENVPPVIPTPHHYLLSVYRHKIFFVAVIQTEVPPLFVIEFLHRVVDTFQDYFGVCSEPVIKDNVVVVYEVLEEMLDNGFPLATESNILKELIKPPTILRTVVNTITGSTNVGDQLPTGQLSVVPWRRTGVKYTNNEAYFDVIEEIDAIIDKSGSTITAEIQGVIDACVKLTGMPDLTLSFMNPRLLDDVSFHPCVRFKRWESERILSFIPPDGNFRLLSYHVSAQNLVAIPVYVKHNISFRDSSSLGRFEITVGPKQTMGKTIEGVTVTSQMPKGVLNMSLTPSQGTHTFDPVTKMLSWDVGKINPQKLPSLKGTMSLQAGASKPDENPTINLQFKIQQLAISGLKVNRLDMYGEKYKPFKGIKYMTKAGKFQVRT

Compound in the assay: CC(C)(O)CC(=O)NCCn1ccc2ncnc(Nc3ccc(Oc4cccc(C(F)(F)F)c4)c(Cl)c3)c21
In words: log2 fold change, soluble protein after heating vs DMSO (PISA); higher = thermal stabilisation; K562 lysate, 10 uM; active = over 0.2 and 3.5 SD of the protein, either way, in both replicates (recomputed). An outline of the steps: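 Pellets of K562 cells were dounce-homogenised in PBS pH 7.4 with 1 mM MgCl2, and the crude extract was held at 1 mg/mL protein for a 30 min treatment with 10 μM compound. Aliquots were heated for 3 min over 48°C-58°C and pooled before NP-40 was added to 0.5% at 4°C. The supernatant from 21,000xg for 90 min was quantified by TMTpro 16plex LC-MS/MS with channel sums equalised. Values are reported from duplicates as log-two fold change in thermal stability relative to solvent controls.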
As to ALAS1 (UniProt P13196), the log2 fold change was inactive: -0.041.

On to AMBRA1 isoform 5 (UniProt Q9C0C7), for which the log2 fold change is inactive: -0.066.

On to ALG11 (UniProt Q2TAA5), for which the log2 fold change is inactive: 0.108.

Regarding ANKRD13C (UniProt Q8N6S4), the log2 fold change is inactive: -0.183.

On to ANKRD30A (UniProt Q9BXX3), for which the log2 fold change was inactive: 0.088.

As for ANKRD40 (UniProt Q6AI12), the log2 fold change is inactive: 0.05.

With ANAPC16 (UniProt Q96DE5), the log2 fold change is inactive: 0.008.

As for ANGPTL4 (UniProt M0R3A2), the log2 fold change is inactive: -0.082.

Consider AKTIP isoform 2 (UniProt Q9H8T0), for which the log2 fold change is inactive: -0.161.

On to ANKHD1 isoform 2 (UniProt Q8IWZ3), for which the log2 fold change is inactive: 0.081.

Turning to ANKHD1 (UniProt D6RHC4), the log2 fold change was inactive: -0.116.

Regarding ANKRD50 (UniProt Q9ULJ7), the log2 fold change is inactive: 0.031.

As for AP4M1 (UniProt O00189), the log2 fold change is inactive: 0.033.

For the target AMOTL1 (UniProt Q8IY63), the log2 fold change is inactive: -0.043.

In the case of ALDH9A1 (UniProt P49189), the log2 fold change was inactive: -0.006.

For the target ANKH (UniProt Q9HCJ1), the log2 fold change is inactive: -0.089.

Regarding ANAPC11 (UniProt Q9NYG5), the log2 fold change is inactive: 0.083.

ANKLE2 (UniProt Q86XL3): the log2 fold change is inactive: -0.049.

Regarding AP3M2 (UniProt P53677), the log2 fold change is inactive: -0.066.

As for ALOX12B (UniProt O75342), the log2 fold change was inactive: 0.231.

As to AP1B1 isoform 3 (UniProt Q10567), the log2 fold change was inactive: 0.172.

ALG12 (UniProt Q9BV10): the log2 fold change was inactive: -0.01.

The record behind these values is the supplement of paper PMC10849652.
